Experimental data reported in paper PMC11378909, “Thr^4 phosphorylation on RNA Pol II occurs at early transcription regulating 3′-end processing” (Science Advances, 2024).
Results are given in words; binding and its absence hold for the method and conditions named.

Biological target: RPRD1B-CID (residues 2 to 133) (human) (UniProt Q9NQG5)
Assay: SEC; gel filtration profile of purified RPRD1B-CID (fig. S4A); both purified

binding: no binding
B1: RPRD1B-CID (residues 2 to 133) (domain or fragment, UniProt Q9NQG5 2-133)
chain: SSFSESALEKKLSELSNSQQSVQTLSLWLIHHRKHAGPIVSVWHRELRKAKSNRKLTFLYLANDVIQNSKRKGPEFTREFESVLVDAFSHVAREADEGCKKPLERLLNIWQERSVYGGEFIQQLKLSMEDSK
